{
  "source": "patent US20210340263A1",
  "binders": {"B1": {"name": "humanized 9H11 monoclonal antibody (antibody, human IgG1, kappa, V domains shown)", "VH": "EVQLVESGGGLVQPGGSLRLSCSFSGFSLSTSGMGVGWIRQAPGKGLEWVAHIWWDDDKRYNPALKSRFTLSVDRSKNTLYLQMNSLRAEDTATYYCVQINYGNYRFDNWGHGTLVTVSS", "VL": "DIQMTQSPSSLSASVGDRVTISCRASESVDNYGISFLNWFQQKPGKAPKLLIYAASNQRSGVPSRFSGSGSGTDFTLTISSLQPEDFATYFCQQSKEVPWTFGQGTKVEIKR"}},
  "key": {"[1]": {"biological_target": "T1, human Follicle Stimulating Hormone Receptor (FSHR) (human) (UniProt P23945)", "T1 sequence": "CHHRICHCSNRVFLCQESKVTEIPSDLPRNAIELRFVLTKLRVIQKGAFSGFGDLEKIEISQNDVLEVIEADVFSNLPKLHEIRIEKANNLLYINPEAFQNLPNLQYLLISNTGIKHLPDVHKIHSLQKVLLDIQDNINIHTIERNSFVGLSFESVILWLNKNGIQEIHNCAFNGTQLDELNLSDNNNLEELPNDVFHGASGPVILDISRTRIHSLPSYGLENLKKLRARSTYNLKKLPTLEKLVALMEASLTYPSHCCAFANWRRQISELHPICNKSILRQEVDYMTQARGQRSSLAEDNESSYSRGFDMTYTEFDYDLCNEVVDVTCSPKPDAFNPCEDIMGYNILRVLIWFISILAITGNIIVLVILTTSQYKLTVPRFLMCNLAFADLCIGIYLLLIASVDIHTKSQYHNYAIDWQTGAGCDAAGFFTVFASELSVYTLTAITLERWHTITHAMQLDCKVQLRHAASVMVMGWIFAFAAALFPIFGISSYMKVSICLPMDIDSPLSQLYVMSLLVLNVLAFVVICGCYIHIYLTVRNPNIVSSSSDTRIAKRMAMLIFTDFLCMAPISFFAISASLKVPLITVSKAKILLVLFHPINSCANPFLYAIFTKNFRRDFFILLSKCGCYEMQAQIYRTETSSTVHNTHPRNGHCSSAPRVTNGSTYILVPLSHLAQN", "test": "flow cytometry, K562-Fshr cells"}, "[2]": {"biological_target": "T1, human Follicle Stimulating Hormone Receptor (FSHR) (human)", "test": "flow cytometry, K562-Fshr (GFP+) against K562 (GFP-), anti-human IgG PE"}},
  "note": "Results are given in words; binding and its absence hold for the method and conditions named. Some entries that bind do so weakly or less than the wild type.",
  "data": [
    {"binder": "B1", "values": [
      {"measurement": "binding", "setting": "[1]", "value": "binds"},
      {"measurement": "binding", "setting": "[2]", "value": "binds"}
    ]}
  ]
}
